Laboratory results: the supplement of paper PMC6078165

Tested on: MDAMB231
Test: relative JC-1 red fluorescence (viability) vs pre-drug, coculture with fibroblast (fraction); higher = more viable cancer cells
Procedure: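 JC-1 labelled TNBC cells cocultured 1:1 (1,500 cells each) with CellTrace Violet stained primary or stromal fibroblasts in 384-well plates in FluoroBrite medium, treated with one of 42 anticancer drugs at 0.1, 1, 10 or 100 uM. JC-1 red fluorescence (mitochondrial integrity in cancer cells only) was read by plate reader every 8 h for 72 h. Values are normalised to each well's pre-drug value. The stock of one drug was tenfold lower, so its dose labels may be too high.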

CC(C)C[C@H](NC(=O)[C@H](Cc1ccccc1)NC(=O)c1cnccn1)B(O)O [Bortezomib]
relative JC-1 red fluorescence
Details | 8 h | 16 h | 24 h | 32 h | 40 h | 48 h | 56 h | 64 h | 72 h
0.1 µM, coculture fibroblast: C12385 | 0.7802 | 0.717 | 0.774 | 0.669 | 0.631 | 0.654 | 0.659 | 0.7296 | 0.748
0.1 µM, coculture fibroblast: H6013 | 0.887 | 0.83 | 0.799 | 0.782 | 0.797 | 0.858 | 0.852 | 0.87 | 0.861
0.1 µM, coculture fibroblast: H6019 | 0.811 | 0.737 | 0.839 | 0.846 | 0.891 | 0.788 | 0.831 | 0.875 | 0.849
0.1 µM, coculture fibroblast: H6076 | 0.821 | 0.765 | 0.787 | 0.83423 | 0.914 | 0.926 | 0.968 | 0.866 | 0.85
0.1 µM, coculture fibroblast: H6231 | 0.8783 | 0.766 | 0.692 | 0.652 | 0.621 | 0.623 | 0.627 | 0.646 | 0.659
0.1 µM, coculture fibroblast: HADF | 0.869 | 0.8088 | 0.7549 | 0.704 | 0.685 | 0.725 | 0.7 | 0.721 | 0.717
0.1 µM, coculture fibroblast: HCFa | 0.8737 | 0.7981 | 0.721 | 0.668 | 0.651 | 0.663 | 0.629 | 0.619 | 0.59
0.1 µM, coculture fibroblast: HCPF | 0.893 | 0.7857 | 0.707 | 0.656 | 0.612 | 0.584 | 0.583 | 0.585 | 0.606
0.1 µM, coculture fibroblast: HHSteC | 0.889 | 0.856 | 0.813 | 0.774 | 0.757 | 0.783 | 0.748 | 0.758 | 0.744
0.1 µM, coculture fibroblast: HMF | 0.8487 | 0.767 | 0.7278 | 0.7061 | 0.693 | 0.677 | 0.701 | 0.726 | 0.762
0.1 µM, coculture fibroblast: HPFa | 0.947 | 0.9 | 0.853 | 0.819 | 0.825 | 0.783 | 0.737 | 0.669 | 0.797
0.1 µM, coculture fibroblast: HUF | 0.823 | 0.71798 | 0.776 | 0.665 | 0.639 | 0.672 | 0.66 | 0.707 | 0.707
0.1 µM, coculture fibroblast: Hs5 | 0.85 | 0.7936 | 0.7817 | 0.768 | 0.788 | 0.766 | 0.778 | 0.786 | 0.803
0.1 µM, coculture fibroblast: Hs27A | 0.867 | 0.826 | 0.778 | 0.765 | 0.733 | 0.754 | 0.72 | 0.728 | 0.703
0.1 µM, coculture fibroblast: Hs343T | 0.807 | 0.71876 | 0.676 | 0.659 | 0.657 | 0.6625 | 0.683 | 0.715 | 0.747
0.1 µM, coculture fibroblast: WS1 | 0.772 | 0.692 | 0.726 | 0.618 | 0.613 | 0.641 | 0.648 | 0.722 | 0.735
1 µM, coculture fibroblast: C12385 | 0.751 | 0.731 | 0.563 | 0.483 | 0.407 | 0.388 | 0.364 | 0.374 | 0.362
1 µM, coculture fibroblast: H6013 | 0.873 | 0.764 | 0.645 | 0.59 | 0.536 | 0.537 | 0.518 | 0.503 | 0.481
1 µM, coculture fibroblast: H6019 | 0.794 | 0.709 | 0.714 | 0.669 | 0.643 | 0.668 | 0.66 | 0.701 | 0.693
1 µM, coculture fibroblast: H6076 | 0.9127 | 0.764 | 0.639 | 0.6 | 0.585 | 0.578 | 0.589 | 0.599 | 0.617
1 µM, coculture fibroblast: H6231 | 0.909 | 0.792 | 0.656 | 0.59 | 0.527 | 0.508 | 0.491 | 0.485 | 0.486
1 µM, coculture fibroblast: HADF | 0.8852 | 0.825 | 0.6817 | 0.59 | 0.525 | 0.493 | 0.456 | 0.442 | 0.419
1 µM, coculture fibroblast: HCFa | 0.8784 | 0.783 | 0.694 | 0.622 | 0.58 | 0.569 | 0.544 | 0.527 | 0.494
1 µM, coculture fibroblast: HCPF | 0.905 | 0.79 | 0.601 | 0.528 | 0.472 | 0.446 | 0.418 | 0.403 | 0.406
1 µM, coculture fibroblast: HHSteC | 0.888 | 0.8064 | 0.70347 | 0.6332 | 0.563 | 0.546 | 0.501 | 0.482 | 0.449
1 µM, coculture fibroblast: HMF | 0.881 | 0.742 | 0.6543 | 0.587 | 0.541 | 0.509 | 0.49 | 0.495 | 0.512
1 µM, coculture fibroblast: HPFa | 0.925 | 0.858 | 0.74 | 0.638 | 0.585 | 0.566 | 0.519 | 0.494 | 0.457
1 µM, coculture fibroblast: HUF | 0.836 | 0.7236 | 0.7173 | 0.62 | 0.596 | 0.607 | 0.574 | 0.593 | 0.584
1 µM, coculture fibroblast: Hs5 | 0.927 | 0.798 | 0.666 | 0.588 | 0.525 | 0.466 | 0.446 | 0.431 | 0.424
1 µM, coculture fibroblast: Hs27A | 0.866 | 0.77998 | 0.6779 | 0.6251 | 0.58 | 0.544 | 0.521 | 0.506 | 0.468
1 µM, coculture fibroblast: Hs343T | 0.9592 | 0.856 | 0.672 | 0.588 | 0.516 | 0.474 | 0.431 | 0.429 | 0.424
1 µM, coculture fibroblast: WS1 | 0.748 | 0.675 | 0.545 | 0.427 | 0.387 | 0.38 | 0.364 | 0.381 | 0.384
10 µM, coculture fibroblast: C12385 | 0.762 | 0.7 | 0.557 | 0.443 | 0.357 | 0.337 | 0.313 | 0.327 | 0.322
10 µM, coculture fibroblast: H6013 | 0.8774 | 0.7726 | 0.6627 | 0.57 | 0.51 | 0.526 | 0.502 | 0.501 | 0.482
10 µM, coculture fibroblast: H6019 | 0.765 | 0.687 | 0.613 | 0.541 | 0.51 | 0.518 | 0.516 | 0.56 | 0.557
10 µM, coculture fibroblast: H6076 | 0.9 | 0.758 | 0.6049 | 0.562 | 0.55 | 0.539 | 0.538 | 0.546 | 0.568
10 µM, coculture fibroblast: H6231 | 0.929 | 0.836 | 0.701 | 0.615 | 0.558 | 0.536 | 0.5 | 0.488 | 0.474
10 µM, coculture fibroblast: HADF | 0.8572 | 0.771 | 0.651 | 0.539 | 0.484 | 0.467 | 0.425 | 0.407 | 0.373
10 µM, coculture fibroblast: HCFa | 0.8841 | 0.7734 | 0.638 | 0.534 | 0.495 | 0.476 | 0.445 | 0.429 | 0.402
10 µM, coculture fibroblast: HCPF | 0.873 | 0.776 | 0.656 | 0.597 | 0.55 | 0.514 | 0.495 | 0.48 | 0.469
10 µM, coculture fibroblast: HHSteC | 0.8671 | 0.784 | 0.65 | 0.531 | 0.461 | 0.446 | 0.397 | 0.387 | 0.356
10 µM, coculture fibroblast: HMF | 0.86 | 0.762 | 0.631 | 0.574 | 0.532 | 0.499 | 0.488 | 0.5 | 0.5035
10 µM, coculture fibroblast: HPFa | 0.9419 | 0.8535 | 0.729 | 0.622 | 0.591 | 0.574 | 0.525 | 0.51 | 0.479
10 µM, coculture fibroblast: HUF | 0.875 | 0.773 | 0.793 | 0.641 | 0.588 | 0.578 | 0.541 | 0.56 | 0.548
10 µM, coculture fibroblast: Hs5 | 0.908 | 0.831 | 0.73 | 0.66 | 0.617 | 0.564 | 0.544 | 0.534 | 0.527
10 µM, coculture fibroblast: Hs27A | 0.903 | 0.801 | 0.693 | 0.61 | 0.545 | 0.534 | 0.491 | 0.472 | 0.434
10 µM, coculture fibroblast: Hs343T | 0.868 | 0.7329 | 0.618 | 0.549 | 0.506 | 0.479 | 0.45 | 0.446 | 0.44
10 µM, coculture fibroblast: WS1 | 0.758 | 0.679 | 0.619 | 0.503 | 0.442 | 0.426 | 0.4 | 0.418 | 0.41
100 µM, coculture fibroblast: C12385 | 0.773 | 0.78 | 0.604 | 0.51 | 0.42 | 0.389 | 0.358 | 0.357 | 0.338
100 µM, coculture fibroblast: H6013 | 0.914 | 0.816 | 0.723 | 0.655 | 0.576 | 0.582 | 0.55 | 0.542 | 0.515
100 µM, coculture fibroblast: H6019 | 0.79 | 0.7051 | 0.702 | 0.652 | 0.625 | 0.637 | 0.636 | 0.678 | 0.669
100 µM, coculture fibroblast: H6076 | 0.9361 | 0.808 | 0.661 | 0.611 | 0.574 | 0.545 | 0.539 | 0.538 | 0.54
100 µM, coculture fibroblast: H6231 | 0.93 | 0.817 | 0.687 | 0.635 | 0.579 | 0.561 | 0.539 | 0.525 | 0.513
100 µM, coculture fibroblast: HADF | 0.907 | 0.818 | 0.6712 | 0.542 | 0.485 | 0.477 | 0.423 | 0.413 | 0.375
100 µM, coculture fibroblast: HCFa | 0.885 | 0.756 | 0.626 | 0.519 | 0.466 | 0.444 | 0.399 | 0.372 | 0.338
100 µM, coculture fibroblast: HCPF | 0.901 | 0.7795 | 0.606 | 0.5597 | 0.5266 | 0.504 | 0.476 | 0.455 | 0.4377
100 µM, coculture fibroblast: HHSteC | 0.919 | 0.805 | 0.675 | 0.568 | 0.502 | 0.487 | 0.438 | 0.422 | 0.379
100 µM, coculture fibroblast: HMF | 0.9211 | 0.7972 | 0.684 | 0.62 | 0.545 | 0.5 | 0.481 | 0.476 | 0.464
100 µM, coculture fibroblast: HPFa | 0.9151 | 0.771 | 0.752 | 0.75 | 0.715 | 0.715 | 0.659 | 0.653 | 0.62
100 µM, coculture fibroblast: HUF | 0.8527 | 0.73048 | 0.651 | 0.527 | 0.47 | 0.458 | 0.417 | 0.424 | 0.415
100 µM, coculture fibroblast: Hs5 | 0.9094 | 0.774 | 0.66 | 0.602 | 0.55 | 0.5 | 0.473 | 0.46 | 0.453
100 µM, coculture fibroblast: Hs27A | 0.89 | 0.798 | 0.677 | 0.606 | 0.546 | 0.521 | 0.488 | 0.466 | 0.414
100 µM, coculture fibroblast: Hs343T | 0.907 | 0.762 | 0.6372 | 0.573 | 0.505 | 0.461 | 0.427 | 0.414 | 0.4
100 µM, coculture fibroblast: WS1 | 0.785 | 0.733 | 0.597 | 0.497 | 0.422 | 0.39 | 0.36 | 0.354 | 0.337

The reference is the same well before dosing, and untreated signal decays as well.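 Fibroblast labels name human fibroblasts: mostly primary ones from tissues such as uterus (C12385, HUF), lung (H6013), bone (Hs27A), adrenal (HADF) and skin (WS1), plus mammary HMF and breast cancer-associated Hs343T. The cancer cells are basal-like or mesenchymal-like triple-negative breast cancer lines. The paper calls a changed response a hit when it shifts by more than 3x the replicate standard deviation. The tissue of the other fibroblasts is not given here.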
